These results are taken from the supplement of paper PMC9233669.

Variants at the floor of the assay are shown more often than the library holds them.

One data set concerns biotinyl-Trp-oxazolone. Briefly: self-aminoacylation, catalytic enhancement (BWO) (fold over background); higher = more active; k-Seq, kA / k0A0; sequences stand for … in GGGAAUGGAUCCACAUCUACGAAUUC…UUCACUGCAGACUUGACGAAGCUG
The method, boiled down:
(§1)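 Catalytic enhancement equals the median kA over the uncatalyzed rate, the latter read from the low-activity peak of a bimodal Gaussian fit. Values of kA came from fitting each sequence's fraction reacted to a pseudo-first-order model, with 1000 bootstraps. Reacted RNA was captured with streptavidin and quantified by triplicate qPCR and Illumina sequencing after 90 minutes at room temperature with 2–1250 μM biotinyl-aminoacyl-oxazolone and 0.43 μM mutagenized RNA pools bearing a 21-nt variable region.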

The subject of another data set is biotinyl-Leu-oxazolone. Briefly: self-aminoacylation, catalytic enhancement (BLO) (fold over background); higher = more active; k-Seq, kA / k0A0; sequences stand for … in GGGAAUGGAUCCACAUCUACGAAUUC…UUCACUGCAGACUUGACGAAGCUG
The method, boiled down: as §1

Another data set concerns biotinyl-Val-oxazolone. Briefly: self-aminoacylation, catalytic enhancement (BVO) (fold over background); higher = more active; k-Seq, kA / k0A0; sequences stand for … in GGGAAUGGAUCCACAUCUACGAAUUC…UUCACUGCAGACUUGACGAAGCUG
In short, it runs like this:
as §1

The subject of a further data set is biotinyl-Ile-oxazolone. In words: self-aminoacylation, catalytic enhancement (BIO) (fold over background); higher = more active; k-Seq, kA / k0A0; sequences stand for … in GGGAAUGGAUCCACAUCUACGAAUUC…UUCACUGCAGACUUGACGAAGCUG
In short, it runs like this: as §1

In the next data set the test system is biotinyl-Met-oxazolone. In words: self-aminoacylation, catalytic enhancement (BMO) (fold over background); higher = more active; k-Seq, kA / k0A0; sequences stand for … in GGGAAUGGAUCCACAUCUACGAAUUC…UUCACUGCAGACUUGACGAAGCUG
The method, boiled down: as §1

In the next data set the test system is biotinyl-Phe-oxazolone. In words: self-aminoacylation, catalytic enhancement (BFO) (fold over background); higher = more active; k-Seq, kA / k0A0; sequences stand for … in GGGAAUGGAUCCACAUCUACGAAUUC…UUCACUGCAGACUUGACGAAGCUG
The method, boiled down:
as §1

As to “AAGUGAGCUAAUAGUCGCAAG [Fam3.1 aminoacylation ribozyme variant]”, the self-aminoacylation was 1.7 in the data set with biotinyl-Trp-oxazolone; 1.13 in the data set with biotinyl-Leu-oxazolone; 1.26 with biotinyl-Val-oxazolone; 1.67 in the data set with biotinyl-Ile-oxazolone; 1.3 in the data set with biotinyl-Met-oxazolone; 1.57 with biotinyl-Phe-oxazolone.

On to “AUUACCCUGGACAUCGAGUGG [Fam2.1 aminoacylation ribozyme variant]”, for which the self-aminoacylation in the data set on biotinyl-Trp-oxazolone was determined as 1.82; in the data set with biotinyl-Leu-oxazolone it was 1.79; with biotinyl-Val-oxazolone it was 1.26; with biotinyl-Ile-oxazolone, 1.06; with biotinyl-Met-oxazolone, 1.53; in the data set with biotinyl-Phe-oxazolone it was 1.73.

For “AUUCCCCUAGGUCAUAGGGUG [Fam2.2 aminoacylation ribozyme variant]”, the self-aminoacylation in the data set on biotinyl-Trp-oxazolone was 4.78; with biotinyl-Leu-oxazolone, 6.57; with biotinyl-Val-oxazolone, 3.08; in the data set on biotinyl-Ile-oxazolone, 3.38; in the data set with biotinyl-Met-oxazolone it was 4.99; in the data set with biotinyl-Phe-oxazolone, 17.1.

For the sequence “UCACACUUCAAGCAAUGGGUC [Fam1B.1 aminoacylation ribozyme variant]”, the self-aminoacylation with biotinyl-Trp-oxazolone is 0.688; in the data set with biotinyl-Leu-oxazolone, 0.713; in the data set with biotinyl-Val-oxazolone it was 0.837; in the data set on biotinyl-Ile-oxazolone, 0.71; in the data set on biotinyl-Met-oxazolone, 0.708; in the data set with biotinyl-Phe-oxazolone it was 0.633.

For the sequence “AUUUCCCUGGUCAACGAGUGA [Fam2.1 aminoacylation ribozyme variant]”, the self-aminoacylation in the data set with biotinyl-Trp-oxazolone was 8.23; with biotinyl-Leu-oxazolone it was 6.99; in the data set with biotinyl-Val-oxazolone it was 3.91; in the data set on biotinyl-Ile-oxazolone it was 3.9; in the data set with biotinyl-Met-oxazolone it was 6.93; with biotinyl-Phe-oxazolone, 42.4.

With “AAGUUUGCUAGUCGUCGCAAG [Fam3.1 aminoacylation ribozyme variant]”, the self-aminoacylation came out at 1.17 in the data set with biotinyl-Trp-oxazolone; 1.01 with biotinyl-Leu-oxazolone; 0.942 in the data set on biotinyl-Val-oxazolone; 0.805 in the data set on biotinyl-Ile-oxazolone; 0.942 in the data set on biotinyl-Met-oxazolone; 0.983 with biotinyl-Phe-oxazolone.

For the sequence “CUUCUUCAAACAAACGGUCUG [Fam1A.1 aminoacylation ribozyme variant]”, the self-aminoacylation is 0.746 in the data set on biotinyl-Trp-oxazolone; 0.822 in the data set with biotinyl-Leu-oxazolone; 0.764 in the data set on biotinyl-Val-oxazolone; 0.865 with biotinyl-Ile-oxazolone; 0.739 with biotinyl-Met-oxazolone; 0.905 with biotinyl-Phe-oxazolone.

Turning to “CUACUUCGAAUAAUCGGUCUG [Fam1A.1 aminoacylation ribozyme variant]”, the self-aminoacylation was found to be 0.44 in the data set on biotinyl-Trp-oxazolone; 0.702 in the data set with biotinyl-Leu-oxazolone; 0.636 in the data set on biotinyl-Val-oxazolone; 0.624 in the data set with biotinyl-Ile-oxazolone; 0.684 in the data set on biotinyl-Met-oxazolone; 0.513 in the data set with biotinyl-Phe-oxazolone.

On to “AAGUUUCCUAAUAGUCGCAAC [Fam3.1 aminoacylation ribozyme variant]”, for which the self-aminoacylation in the data set on biotinyl-Trp-oxazolone turned out to be 2.18; in the data set with biotinyl-Leu-oxazolone, 1.5; in the data set on biotinyl-Val-oxazolone, 1.31; in the data set with biotinyl-Ile-oxazolone, 1.59; in the data set on biotinyl-Met-oxazolone, 1.73; in the data set on biotinyl-Phe-oxazolone, 2.42.

With “AUUGCCCUGGUCAUCGAGUAA [Fam2.1 aminoacylation ribozyme variant]”, the self-aminoacylation in the data set with biotinyl-Trp-oxazolone was found to be 8.07; in the data set on biotinyl-Leu-oxazolone, 8.75; in the data set with biotinyl-Val-oxazolone, 4.02; with biotinyl-Ile-oxazolone it was 3.56; in the data set on biotinyl-Met-oxazolone it was 8.54; with biotinyl-Phe-oxazolone, 28.4.

On to “AUUCAUCCAGGUCAUCGGGUG [Fam2.2 aminoacylation ribozyme variant]”, for which the self-aminoacylation was found to be 6.96 with biotinyl-Trp-oxazolone; 9.76 in the data set with biotinyl-Leu-oxazolone; 4.75 in the data set on biotinyl-Val-oxazolone; 4.96 in the data set with biotinyl-Ile-oxazolone; 7.87 in the data set on biotinyl-Met-oxazolone; 47.8 with biotinyl-Phe-oxazolone.

With “AAGUUUGCAAAUAGUUGCAAG [Fam3.1 aminoacylation ribozyme variant]”, the self-aminoacylation worked out at 0.634 in the data set on biotinyl-Trp-oxazolone; 1.12 in the data set with biotinyl-Leu-oxazolone; 0.982 in the data set on biotinyl-Val-oxazolone; 1.17 in the data set on biotinyl-Ile-oxazolone; 0.926 in the data set on biotinyl-Met-oxazolone; 0.979 with biotinyl-Phe-oxazolone.

In the case of “AUUACCCUGGUAAUCGAGUAA [Fam2.1 aminoacylation ribozyme variant]”, the self-aminoacylation with biotinyl-Trp-oxazolone was 0.945; in the data set with biotinyl-Leu-oxazolone it was 1.14; in the data set on biotinyl-Val-oxazolone, 1.43; in the data set with biotinyl-Ile-oxazolone, 1.39; in the data set on biotinyl-Met-oxazolone, 1.32; in the data set with biotinyl-Phe-oxazolone, 0.906.

On to “CCGCACGUCAAGCAAUCGGUC [Fam1B.1 aminoacylation ribozyme variant]”, for which the self-aminoacylation in the data set on biotinyl-Trp-oxazolone turned out to be 0.777; in the data set on biotinyl-Leu-oxazolone it was 0.78; in the data set on biotinyl-Val-oxazolone, 1.77; with biotinyl-Ile-oxazolone it was 0.807; with biotinyl-Met-oxazolone, 0.625; in the data set with biotinyl-Phe-oxazolone, 1.95.

For the sequence “CCACACUUCAAGCAAUCCGUC [Fam1B.1 aminoacylation ribozyme variant]”, the self-aminoacylation in the data set with biotinyl-Trp-oxazolone was 0.828; in the data set with biotinyl-Leu-oxazolone it was 0.664; in the data set with biotinyl-Val-oxazolone it was 1.01; in the data set with biotinyl-Ile-oxazolone it was 0.894; in the data set on biotinyl-Met-oxazolone, 0.659; in the data set on biotinyl-Phe-oxazolone, 1.34.

On to “AAGUUUGCCAAUAGUCUCAAG [Fam3.1 aminoacylation ribozyme variant]”, for which the self-aminoacylation in the data set with biotinyl-Trp-oxazolone is 1.17; in the data set on biotinyl-Leu-oxazolone it was 0.926; in the data set with biotinyl-Val-oxazolone, 0.906; with biotinyl-Ile-oxazolone, 0.98; in the data set on biotinyl-Met-oxazolone, 1.25; in the data set on biotinyl-Phe-oxazolone, 1.32.

Take “AUUAUCCUGGUCAACGAGUGA [Fam2.1 aminoacylation ribozyme variant]”: the self-aminoacylation in the data set with biotinyl-Trp-oxazolone worked out at 7.67; in the data set with biotinyl-Leu-oxazolone, 8.02; with biotinyl-Val-oxazolone, 3.87; in the data set with biotinyl-Ile-oxazolone, 3.69; in the data set with biotinyl-Met-oxazolone it was 6.62; in the data set on biotinyl-Phe-oxazolone it was 30.1.

“AAGUUUGGUAAUAGUGGCAAG [Fam3.1 aminoacylation ribozyme variant]”: the self-aminoacylation turned out to be 0.669 in the data set on biotinyl-Trp-oxazolone; 0.452 with biotinyl-Leu-oxazolone; 0.641 in the data set with biotinyl-Val-oxazolone; 0.573 with biotinyl-Ile-oxazolone; 0.47 with biotinyl-Met-oxazolone; 0.541 with biotinyl-Phe-oxazolone.

For “CCUCACUACAAGCAAUCGGUC [Fam1B.1 aminoacylation ribozyme variant]”, the self-aminoacylation in the data set with biotinyl-Trp-oxazolone was determined as 0.782; in the data set on biotinyl-Leu-oxazolone it was 0.744; in the data set with biotinyl-Val-oxazolone it was 0.735; in the data set on biotinyl-Ile-oxazolone it was 0.719; in the data set with biotinyl-Met-oxazolone it was 0.564; in the data set with biotinyl-Phe-oxazolone, 1.44.

“AAGUUUGCUAAUAGUCACAAG [Fam3.1 aminoacylation ribozyme variant]”: the self-aminoacylation in the data set on biotinyl-Trp-oxazolone was found to be 4.08; in the data set on biotinyl-Leu-oxazolone it was 1.21; in the data set on biotinyl-Val-oxazolone it was 1.35; in the data set with biotinyl-Ile-oxazolone it was 1.47; in the data set with biotinyl-Met-oxazolone, 1.45; with biotinyl-Phe-oxazolone it was 12.3.

For the sequence “AUUACCCGGGUCAUCGUGUGA [Fam2.1 aminoacylation ribozyme variant]”, the self-aminoacylation in the data set on biotinyl-Trp-oxazolone was 5.65; in the data set with biotinyl-Leu-oxazolone, 5.65; with biotinyl-Val-oxazolone, 3.17; with biotinyl-Ile-oxazolone, 2.6; in the data set on biotinyl-Met-oxazolone it was 4.88; in the data set with biotinyl-Phe-oxazolone it was 39.

Turning to “AUUUACCUAGGUUAUCGGGUG [Fam2.2 aminoacylation ribozyme variant]”, the self-aminoacylation in the data set on biotinyl-Trp-oxazolone was 3.72; in the data set with biotinyl-Leu-oxazolone, 3.48; in the data set with biotinyl-Val-oxazolone, 2.4; with biotinyl-Ile-oxazolone, 2.29; with biotinyl-Met-oxazolone, 3.44; in the data set with biotinyl-Phe-oxazolone, 23.2.

For the sequence “UCUCACUUCAAGCAAUCGGUC [Fam1B.1 aminoacylation ribozyme variant]”, the self-aminoacylation is 21.5 in the data set on biotinyl-Trp-oxazolone; 1.71 with biotinyl-Leu-oxazolone; 1.35 in the data set with biotinyl-Val-oxazolone; 1.23 in the data set with biotinyl-Ile-oxazolone; 1.15 in the data set on biotinyl-Met-oxazolone; 44.5 in the data set with biotinyl-Phe-oxazolone.

On to “CCACAUAUCAAGCAAUCGGUC [Fam1B.1 aminoacylation ribozyme variant]”, for which the self-aminoacylation was 0.961 with biotinyl-Trp-oxazolone; 0.848 in the data set on biotinyl-Leu-oxazolone; 1.22 in the data set on biotinyl-Val-oxazolone; 1.09 in the data set on biotinyl-Ile-oxazolone; 0.861 in the data set with biotinyl-Met-oxazolone; 0.98 with biotinyl-Phe-oxazolone.

As to “CUACUUCAAACACUAGGUCUG [Fam1A.1 aminoacylation ribozyme variant]”, the self-aminoacylation with biotinyl-Trp-oxazolone amounted to 0.492; in the data set on biotinyl-Leu-oxazolone, 0.607; in the data set with biotinyl-Val-oxazolone, 0.862; in the data set on biotinyl-Ile-oxazolone, 0.774; in the data set with biotinyl-Met-oxazolone, 0.592; in the data set with biotinyl-Phe-oxazolone, 0.602.
